Source: patent US12441768B2, “Compositions and methods for treating endometriosis” (EndoMet Biosciences, Inc., priority 2018, dated 2025)

System: Wnt-responsive promoter (TCF/LEF)
Experiment: Wnt-dependent luciferase reporter assay
Assay type: cell-based, murine
Description: The luciferase reporter assay is commonly used as a tool to study gene expression at the transcriptional level. Peptides from libraries described herein were characterized for ability to suppress transcription in cells with luciferase expression controlled by a Wnt-responsive promoter. Peptides were added to cells transfected with luciferase gene downstream of a Wnt-responsive promoter. Cells were stimulated with Wnt3a protein and incubated with peptides from libraries described herein. Luminescence was recorded to determine the peptides with the highest β-catenin-inhibiting activity. EC50 values were calculated based on the inhibition of luminescence and expressed as concentration (uM) in Table 5.
Peptides were assessed for their ability to inhibit Wnt signaling. Murine 3T3 fibroblasts that express luciferase under a Wnt-responsive promoter (TCF/LEF) (Enzo Life Sciences, Farmingdale, NY) were stimulated with Wnt3a in the presence of increasing concentrations of peptide inhibitor (Hit 1: SEQ ID NO:217, Hit 2: SEQ ID NO:224, Hit 3: SEQ ID NO:228, Hit 4: SEQ ID NO:227, Hit 5: SEQ ID NO:220, Hit 6: SEQ ID NO:168. Hit 7: SEQ ID NO:226) or with vehicle control (FIG. 2A).

Compound	Wnt Reporter Hill Slope
CC[C@H](C)[C@@H]1NC(=O)[C@@H](NC(=O)[C@H](CCC(N)=O)NC(=O)[C@H](C)N(C)C(=O)[C@H](Cc2c[nH]c3ccccc23)NC(=O)CCC(=O)O)CCCCNC(=O)CC[C@@H](C(=O)N[C@@H](Cc2c[nH]cn2)C(=O)N[C@H](C(=O)N[C@@H](CCC(N)=O)C(=O)N[C@@H](CCCNC(=N)N)C(=O)N[C@H](C(=O)N[C@@H](Cc2c[nH]c3ccccc23)C(=O)NCC(N)=O)C(C)C)C2CCCCC2)NC(=O)[C@H](CC(=O)O)NC(=O)[C@H](CC(C)C)NC1=O [compound 405] (HELM PEPTIDE1{[O=C(O)CCC(=O)[*:2]].W.[meA].Q.K.I.L.D.E.H.[O=C([C@@H](N[*:1])C1CCCCC1)[*:2]].Q.R.V.W.G.[am]}$PEPTIDE1,PEPTIDE1,5:R3-9:R3$$$V2.0)	0.8
CC[C@H](C)[C@@H]1NC(=O)[C@@H](NC(=O)[C@H](CCC(N)=O)NC(=O)[C@@H]2CCCCN2C(=O)[C@H](Cc2c[nH]c3ccccc23)NC(C)=O)CCCCNC(=O)CC[C@@H](C(=O)N[C@@H](Cc2c[nH]cn2)C(=O)N[C@H](C(=O)N[C@@H](CCC(N)=O)C(=O)N[C@@H](CCCNC(=N)N)C(=O)N[C@H](C(=O)N[C@@H](Cc2c[nH]c3ccccc23)C(=O)NCC(N)=O)C(C)C)C2CCCCC2)NC(=O)[C@H](CC(=O)O)NC(=O)[C@H](CC(C)C)NC1=O [compound 442] (HELM PEPTIDE1{[ac].W.[O=C([C@@H]1CCCCN1[*:1])[*:2]].Q.K.I.L.D.E.H.[O=C([C@@H](N[*:1])C1CCCCC1)[*:2]].Q.R.V.W.G.[am]}$PEPTIDE1,PEPTIDE1,5:R3-9:R3$$$V2.0)	2
CC[C@H](C)[C@@H]1NC(=O)[C@@H](NC(=O)[C@H](CCC(N)=O)NC(=O)C(C)(C)NC(=O)[C@H](Cc2c[nH]c3ccccc23)NC(C)=O)CCCCNC(=O)CC[C@@H](C(=O)N[C@@H](Cc2c[nH]cn2)C(=O)N[C@H](C(=O)N[C@@H](CCC(N)=O)C(=O)N[C@@H](CCCNC(=N)N)C(=O)N[C@H](C(=O)N[C@@H](Cc2c[nH]c3ccccc23)C(=O)NCC(N)=O)C(C)C)C2CCCCC2)NC(=O)[C@H](CC(=O)O)NC(=O)[C@H](CC(C)C)NC1=O [compound 443] (HELM PEPTIDE1{[ac].W.[Aib].Q.K.I.L.D.E.H.[O=C([C@@H](N[*:1])C1CCCCC1)[*:2]].Q.R.V.W.G.[am]}$PEPTIDE1,PEPTIDE1,5:R3-9:R3$$$V2.0)	3
CC[C@H](C)[C@@H]1NC(=O)[C@@H](NC(=O)[C@H](CCC(N)=O)NC(=O)[C@H](C)N(C)C(=O)[C@H](Cc2c[nH]c3ccccc23)NC(C)=O)CCCCNC(=O)C[C@@H](C(=O)N[C@@H](Cc2c[nH]cn2)C(=O)N[C@H](C(=O)N[C@@H](CCC(N)=O)C(=O)N[C@@H](C)C(=O)N[C@H](C(N)=O)C(C)C)C2CCCCC2)NC(=O)[C@H](CC(N)=O)NC(=O)[C@H](CC(C)C)NC1=O [compound 452] (HELM PEPTIDE1{[ac].W.[meA].Q.K.I.L.N.D.H.[O=C([C@@H](N[*:1])C1CCCCC1)[*:2]].Q.A.V.[am]}$PEPTIDE1,PEPTIDE1,5:R3-9:R3$$$V2.0)	1
CCCCCCCCCCCC(=O)N[C@@H](Cc1c[nH]c2ccccc12)C(=O)N(C)[C@@H](C)C(=O)N[C@@H](CCC(N)=O)C(=O)N[C@H]1CCCCNC(=O)CC[C@@H](C(=O)N[C@@H](Cc2c[nH]cn2)C(=O)N[C@H](C(=O)N[C@H]2CCC(=O)NCCCC[C@@H](C(N)=O)NC(=O)[C@H](Cc3c[nH]c4ccccc34)NC(=O)[C@H](C(C)C)NC(=O)[C@H](CC(=O)O)NC2=O)C2CCCCC2)NC(=O)[C@H](CC(=O)O)NC(=O)[C@H](CC(C)C)NC(=O)[C@H]([C@@H](C)CC)NC1=O [compound 465] (HELM PEPTIDE1{[CCCCCCCCCCCC(=O)[*:2]].W.[meA].Q.K.I.L.D.E.H.[O=C([C@@H](N[*:1])C1CCCCC1)[*:2]].E.D.V.W.K.[am]}$PEPTIDE1,PEPTIDE1,5:R3-9:R3|PEPTIDE1,PEPTIDE1,12:R3-16:R3$$$V2.0; bridges inferred)	3
CC[C@H](C)[C@H](NC(=O)[C@H](CO)NC(=O)[C@H](CCC(N)=O)NC(=O)[C@@H]1CCCN1C(=O)[C@H](Cc1c[nH]c2ccccc12)NC(C)=O)C(=O)N[C@@H](CC(C)C)C(=O)N[C@@H](CC(=O)O)C(=O)N[C@H]1CCC(=O)NCCCC[C@@H](C(=O)N[C@H](C(=O)N[C@@H](Cc2c[nH]c3ccccc23)C(=O)NCC(N)=O)C(C)C)NC(=O)[C@H](CCC(N)=O)NC(=O)[C@H](C2CCCCC2)NC(=O)[C@H](Cc2c[nH]cn2)NC1=O [compound 472] (HELM PEPTIDE1{[ac].W.P.Q.S.I.L.D.E.H.[O=C([C@@H](N[*:1])C1CCCCC1)[*:2]].Q.K.V.W.G.[am]}$PEPTIDE1,PEPTIDE1,9:R3-13:R3$$$V2.0)	3
PQKILDEHVQRVMK [compound 485]	3
PQKILDEHVQRVMK [compound 486]	1.4
PQKILDEHVQRVMK [compound 487]	2.4

Where a SMILES comes first, the peptide text is derived from it.
